Laboratory results: PubChem BioAssay AID1159578 (Peter MacCallum Cancer Centre, 2015)
This is a random part of about 18,000 reagents. About 1,030 of them (5.7%) were called active. 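Inactive calls also include pools with fewer than 3300 nuclei, whose migration was not assessed.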 The raw values are shown without normalisation. Unmarked entries are inactive.

Aim: 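Knock-downs that alter how fast lymphatic endothelial cells migrate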 (primary screen)
System: human lymphatic endothelial cells
Reagent: siRNA pool against human genes, 40 nM
Duration: 48 h after transfection
Measurement: 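High-content imaging of dye-stained cells in a scratch assay measures filled wound area and nuclei per well; duplicate means given as ratio to mock and robust z-score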
Scale: migration robust z-score: higher = faster migration into the scratch; migration relative to mock: higher = more scratch area covered than mock; nuclei per well: higher = more cells in the well
Active means: 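Migration changed when robust z exceeds 2 or falls below -2 and mean nuclei number is at least 3300; otherwise not called changed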
Meaning of the calls: active = migration changed; inactive = no migration change, or too few cells

Gene	migration robust z-score	migration class with cell-count check	migration relative to mock	nuclei per well, duplicate mean
BTN1A1 (GeneID 696)	1.29	migration z between -2 and 2; enough cells	1.06	6156
SEC24A (GeneID 10802)	0.72	migration z between -2 and 2; enough cells	0.94	6866
FAM177B (GeneID 400823)	-0.01	migration z between -2 and 2; enough cells	0.88	5640
RNF220 (GeneID 55182)	0.55	migration z between -2 and 2; enough cells	0.91	6070
IL2 (GeneID 3558)	0.68	migration z between -2 and 2; enough cells	1.06	6222
SLC67A1 (GeneID 5002)	-0.16	migration z between -2 and 2; enough cells	0.78	5051
MUSTN1 (GeneID 389125)	-0.82	migration z between -2 and 2; enough cells	0.67	5380
RBFA (GeneID 79863)	0.15	migration z between -2 and 2; enough cells	0.92	4231
ADAM17 (GeneID 6868)	1.5	migration z between -2 and 2; enough cells	1.1	5654
MLPH (GeneID 79083)	1.11	migration z between -2 and 2; enough cells	1.17	6842
CREBL2 (GeneID 1389)	0.7	migration z between -2 and 2; enough cells	0.94	5426
DDX4 (GeneID 54514)	-0.7	migration z between -2 and 2; enough cells	0.67	5608
CASR (GeneID 846)	1.2	migration z between -2 and 2; enough cells	1.04	6350
INPP5J (GeneID 27124)	-0.75	migration z between -2 and 2; enough cells	0.66	5592
RRS1 (GeneID 23212)	-0.18	migration z between -2 and 2; enough cells	0.77	5378
UBA5 (GeneID 79876)	-0.67	migration z between -2 and 2; enough cells	0.67	4384
PRSS55 (GeneID 203074)	-1.72	migration z between -2 and 2; enough cells	0.44	6782
DDOST (GeneID 1650)	1.09	migration z between -2 and 2; enough cells	1.02	5990
CXCR4 (GeneID 7852)	-0.21	migration z between -2 and 2; enough cells	0.76	3988
ZNF691 (GeneID 51058)	0.87	migration z between -2 and 2; enough cells	1.12	6234
KIF21A (GeneID 55605)	-1.09	migration z between -2 and 2; enough cells	0.6	5202
PRIM1 (GeneID 5557)	1.3	migration z between -2 and 2; enough cells	1.06	4977
MS4A14 (GeneID 84689)	-0.48	migration z between -2 and 2; enough cells	0.76	4740
LCN12 (GeneID 286256)	0.76	migration z between -2 and 2; enough cells	0.95	6360
DSC2 (GeneID 1824)	0.16	migration z between -2 and 2; enough cells	0.84	5729
RAD23B (GeneID 5887)	-0.13	migration z between -2 and 2; enough cells	0.78	3682
MEGF6 (GeneID 1953)	0.96	migration z between -2 and 2; enough cells	1.13	4810
HSF1 (GeneID 3297)	1.34	migration z between -2 and 2; enough cells	1.06	5472
TLR5 (GeneID 7100)	-0.91	migration z between -2 and 2; enough cells	0.63	6303
PRPS2 (GeneID 5634)	-0.07	migration z between -2 and 2; enough cells	0.79	4744
TACR3 (GeneID 6870)	1.14	migration z between -2 and 2; enough cells	1.02	7357
PIGG (GeneID 54872)	-0.57	migration z between -2 and 2; enough cells	0.74	6038
OLFM1 (GeneID 10439)	-0.39	migration z between -2 and 2; enough cells	0.78	6662
ADAM10 (GeneID 102)	0.08	migration z between -2 and 2; enough cells	0.82	5360
RNF4 (GeneID 6047)	-0.36	migration z between -2 and 2; enough cells	0.74	6248
RO60 (GeneID 6738)	-0.31	migration z between -2 and 2; enough cells	0.8	5422
RYBP (GeneID 23429)	-1.34	migration z between -2 and 2; enough cells	0.54	5814
SLC37A2 (GeneID 219855)	1.25	migration z between -2 and 2; enough cells	1.04	3302
MFAP1 (GeneID 4236)	-0.22	migration z between -2 and 2; enough cells	0.83	5915
NPEPL1 (GeneID 79716)	0.8	migration z between -2 and 2; enough cells	0.96	5912
ZBTB38 (GeneID 253461)	-1.06	migration z between -2 and 2; enough cells	0.61	3870
ACTR3 (GeneID 10096)	-1.69	migration z between -2 and 2; enough cells	0.44	5748
CREB1 (GeneID 1385)	-0.57	under 3300 nuclei; migration not judged	0.7	3070
KIF18A (GeneID 81930)	-0.86	under 3300 nuclei; migration not judged	0.64	3232
KLHDC9 (GeneID 126823)	-1.88	under 3300 nuclei; migration not judged	0.4	2373
H1-8 (GeneID 132243)	0.16	migration z between -2 and 2; enough cells	0.92	5690
ZNF639 (GeneID 51193)	-1.61	migration z between -2 and 2; enough cells	0.47	5994
SLC10A5 (GeneID 347051)	-0.32	migration z between -2 and 2; enough cells	0.8	5912
CRAMP1 (GeneID 57585)	0.3	migration z between -2 and 2; enough cells	0.96	5612
EPDR1 (GeneID 54749)	-0.03	migration z between -2 and 2; enough cells	0.88	5639
PDGFD (GeneID 80310)	0.6	migration z between -2 and 2; enough cells	1.04	6405
NCBP2 (GeneID 22916)	-0.28	migration z between -2 and 2; enough cells	0.82	4923
BCDIN3D (GeneID 144233)	-0.62	migration z between -2 and 2; enough cells	0.72	7060
NCOR1 (GeneID 9611)	0.36	migration z between -2 and 2; enough cells	0.88	4644
PHLDB2 (GeneID 90102)	1.2	migration z between -2 and 2; enough cells	1.19	8146
OTULINL (GeneID 54491)	-0.06	migration z between -2 and 2; enough cells	0.87	5540
PHC3 (GeneID 80012)	-1.26	migration z between -2 and 2; enough cells	0.56	5702
LRIG3 (GeneID 121227)	-0.51	migration z between -2 and 2; enough cells	0.76	5666
MICU3 (GeneID 286097)	-0.66	migration z between -2 and 2; enough cells	0.72	5416
NOP14 (GeneID 8602)	0.46	migration z between -2 and 2; enough cells	1	6902
MAN1B1 (GeneID 11253)	-1.68	migration z between -2 and 2; enough cells	0.48	4175
PRKAB1 (GeneID 5564)	-2.1 (active)	migration z below -2; enough cells	0.4	4408
ADRA1D (GeneID 146)	0.55	migration z between -2 and 2; enough cells	0.91	5445
ACAP2 (GeneID 23527)	0.14	migration z between -2 and 2; enough cells	0.92	6492
FADS1 (GeneID 3992)	-1.01	under 3300 nuclei; migration not judged	0.61	3065
IL7 (GeneID 3574)	0.13	migration z between -2 and 2; enough cells	0.83	7040
CCDC191 (GeneID 57577)	-1.31	migration z between -2 and 2; enough cells	0.55	4200
SORT1 (GeneID 6272)	-1.84	migration z between -2 and 2; enough cells	0.45	3504
MRM1 (GeneID 79922)	-0.18	migration z between -2 and 2; enough cells	0.84	5336
PLVAP (GeneID 83483)	-1.56	migration z between -2 and 2; enough cells	0.48	4700
FAM78A (GeneID 286336)	-1.37	migration z between -2 and 2; enough cells	0.53	5896
SULT2A1 (GeneID 6822)	0.86	migration z between -2 and 2; enough cells	0.97	4821
GMPR2 (GeneID 51292)	-0.16	migration z between -2 and 2; enough cells	0.78	5328

Already shown: entries from further up.
Gene	migration robust z-score	migration class with cell-count check	migration relative to mock	nuclei per well, duplicate mean
IL2 (GeneID 3558)	0.68	migration z between -2 and 2; enough cells	1.06	6222
SLC67A1 (GeneID 5002)	-0.16	migration z between -2 and 2; enough cells	0.78	5051
MUSTN1 (GeneID 389125)	-0.82	migration z between -2 and 2; enough cells	0.67	5380
RBFA (GeneID 79863)	0.15	migration z between -2 and 2; enough cells	0.92	4231
ADAM17 (GeneID 6868)	1.5	migration z between -2 and 2; enough cells	1.1	5654
